No constants are given. Whether binding was seen depends on the method and setting.

Chains of the proteins cited; added tags and fusions are not shown. Residues count along the entry.
human CASKIN2 SAM1 domain (483-549) (Q8WXE0, residues 483-549): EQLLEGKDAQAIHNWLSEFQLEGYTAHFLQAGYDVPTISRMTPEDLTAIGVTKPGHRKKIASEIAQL
human CASKIN2 SAM2 domain (550-634) (Q8WXE0, residues 550-634): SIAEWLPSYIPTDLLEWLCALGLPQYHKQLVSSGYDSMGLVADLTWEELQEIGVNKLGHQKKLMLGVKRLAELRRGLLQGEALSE

The target in the experiment is human CASKIN2 SAM2 domain (550-634) (human) (UniProt Q8WXE0). As to the kind of experiment: NMR titration; 1H-15N HSQC of 15N-labeled SAM2 at 100 μM, then unlabeled SAM1 added at a 1:1 stoichiometric ratio; both purified.

Consider “human CASKIN2 SAM1 domain (483-549) (from UniProt Q8WXE0 483-549) (domain or fragment)”, for which the binding result was “no binding (tested: 100 μM, 1:1 stoichiometric ratio)”.

The record behind these values is paper PMC4994250.
